Cell number change and AC50 data for 57 compounds are collected here from PubChem BioAssay AID2685 (National Center for Advancing Translational Sciences (NCATS), 2010).

This is one part of the list. These are further read-outs of the screen, such as a control signal, another cell line or another target. No call is given for them. Compounds called inactive in the main read-out are mostly missing here. The note in brackets gives the kind of curve behind each potency; many fits are weak.

The nature of this assay: qHTS Assay for Lipid Storage Modulators in Drosophila S3 Cells.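 On Cell number change: cells counted by Cell Tracker Red CMTPX staining in the red channel.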 The following applies: BODIPY lipid droplet fluorescence, 18-24 h; for cell number change: measured here: cell count max response, cells fed with added oleic acid. In short, it runs like this: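 Drosophila S3 cells loaded with oleic acid (400 uM, as added) and compounds at several concentrations; lipid droplets imaged by 488-nm laser-scanning cytometry, 500–530 nm intensity and object ratio to cell channel. Percent activity normalized to 20 uM Triacsin C.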

[1] abbreviates: measured here: lipid fluorescence (Fed channel) AC50, cells fed with added oleic acid.
Setting [2] is: measured here: cell number channel AC50, cells fed with added oleic acid.

Broadly, the AC50 is the concentration giving half of the maximal activity seen. Read a low AC50 as activity at low concentration. For the compound `O=C(c1sccc1-c1ccccc1)N1CCN(S(=O)(=O)c2ccccc2F)CC1`, the cell number change stood at 12.1%. Further, the AC50 under setting [1] is 7.31 µM [falling, partial curve].
For the compound `Cc1cc(Nc2ccc(O)cc2)n2c(nc3ccccc32)c1C#N`, the cell number change was -43.8%. In addition, under setting [2], the AC50 was 4.11 µM [falling, full curve]. Also, the AC50 under setting [1] was 5.8 µM [falling, partial curve].
As for `COc1ccc([C@H]2CC(=O)C=C(c3cc(OC)ccc3OC)C2)cc1`, the cell number change stood at 9.27%. For the same compound, the AC50 under setting [2] is 6.51 µM [falling, single point].
For the compound `O=C(Oc1ccc(Br)cc1C(=S)N1CCCC1)c1ccccc1F`, the cell number change was -4.62%. Under setting [1], the AC50 was 18.4 µM [rising, single point].
Regarding `CCn1c(CCCCc2n[nH]c(=S)n2CC)n[nH]c1=S`, the cell number change stood at 60.2%. For the same compound, the AC50 under setting [2] was 11.6 µM [rising, partial curve].
For the compound `CC1CC(C)CN(c2nc3c(c(=O)n(C)c(=O)n3C)n2C)C1` (centres undefined), the cell number change is -3.31%. In addition, the AC50 under setting [1] is 0.651 µM [falling, single point].
With `CCC(C)NCCOCCOc1ccc(C)cc1OC` (centres undefined), the cell number change was -31%. Further, under setting [2], the AC50 is 0.82 µM [falling, full curve, poor fit].
With `O=C(CCCC1=NS(=O)(=O)c2ccccc2N1)N1CCN(c2ccc([N+](=O)[O-])cc2)CC1`, the cell number change was found to be 124%. Besides, the concentration at half-maximal activity (AC50) under setting [2] was 20.6 µM [rising, partial curve]. Further, the AC50 under setting [1] is 25.9 µM [rising, single point].
As for `Cc1cc(NC(=O)CN2C(=O)NC(C)(c3ccc(Cl)cc3)C2=O)no1` (centres undefined), the cell number change is -31%. Also, under setting [2], the AC50 is 29.1 µM [falling, single point]. Also, the half-maximal activity concentration (AC50) under setting [1] was 16.4 µM [falling, partial curve, poor fit].
`COC(=O)[C@@]1(Cc2ccc(F)cc2)[C@H]2c3cc(C(=O)N(C)C)n(Cc4ccc(OC)c(OC)c4)c3C[C@H]2CN1C(=O)c1ccccc1`: the cell number change was -54.1%. The AC50 under setting [2] was 20.6 µM [falling, single point]. Under setting [1], the concentration at half-maximal activity (AC50) is 16.4 µM [falling, partial curve].
In the case of `Cc1cccc(OCCCC(=O)NC(C)c2ccccc2)c1` (centres undefined), the cell number change was 86.4%. In addition, the AC50 under setting [2] was 8.2 µM [rising, partial curve]. Besides, the AC50 under setting [1] was 4.11 µM [rising, single point].
On to `COc1ccc(CNC(=O)C2CCN(C(=O)[C@@H](CC(C)C)NC(=O)OC(C)(C)C)CC2)cc1`, for which the cell number change was -16.5%. Besides, under setting [1], the AC50 is 23.1 µM [rising, partial curve].
For `Cc1ccc(NC(=O)C2(NC(=O)c3ccccn3)CCCCC2)cc1Br`, the cell number change is -47.4%. Further, the AC50 under setting [2] was 0.13 µM [falling, full curve, poor fit].
In the case of `CCN(CC)c1nc2ccccc2nc1C(C#N)C(=O)NCCCOC` (centres undefined), the cell number change came out at 18.3%. In addition, the concentration at half-maximal activity (AC50) under setting [1] is 3.26 µM [rising, full curve].
Turning to `O=C1CC(NCc2ccc3c(c2)OCO3)C(=O)N1Cc1ccc2c(c1)OCO2` (centres undefined), the cell number change was -14.9%. Besides, the half-maximal activity concentration (AC50) under setting [1] is 32.6 µM [rising, single point].
Consider `Cc1nc2c(C(=O)NCc3ccco3)cnn2c(C)c1Cc1ccc(F)cc1Cl`, for which the cell number change stood at 25%.
With `CCOC(=O)c1c(C)[nH]c(=S)c(C#N)c1-c1ccc(Cl)cc1`, the cell number change was 19.5%. Also, the AC50 under setting [1] is 2.59 µM [rising, full curve].
For `Cc1onc(-c2ccccc2Cl)c1C(=O)Nc1nc2ccc(S(C)(=O)=O)cc2s1`, the cell number change worked out at 7.61%. Besides, the AC50 under setting [1] is 0.651 µM [rising, single point].
With `COc1cc(C(=O)Sc2ccc(C)cc2)cc(OC)c1OC`, the cell number change stood at 27.9%. For the same compound, the AC50 under setting [1] was 14.6 µM [rising, partial curve].
Regarding `COc1cc(OC)c(S(=O)(=O)N2CCN(C(=O)c3ccco3)CC2)cc1NC(C)=O`, the cell number change was -51.2%. Under setting [2], the AC50 is 10.3 µM [falling, partial curve, poor fit].
With `CC(=O)c1ccc(N2CCN(C(=O)/C=C/c3ccc(S(=O)(=O)N4CCOCC4)cc3)CC2)cc1`, the cell number change is -9.85%.
Turning to `CC(C)(C)NC(=O)c1ccc(NC(=O)CSc2ccccc2)cc1`, the cell number change worked out at 33.8%. Under setting [2], the AC50 was 0.0184 µM [rising, full curve]. Further, the AC50 under setting [1] is 0.651 µM [rising, full curve, poor fit].
Turning to `Cc1nn(CCOc2ccccc2Cl)c(C)c1[N+](=O)[O-]`, the cell number change turned out to be 22.1%.
As for `CCC[N+](CC#Cc1ccccc1)(CCC)CC(=O)OCC`, the cell number change stood at 78.7%. Besides, the AC50 under setting [2] was 25.9 µM [rising, single point]. In addition, the AC50 under setting [1] is 6.51 µM [rising, partial curve].
Regarding `CC1CCN(C(c2cc3cc4c(cc3[nH]c2=O)OCO4)c2nnnn2CC2CCCO2)CC1` (centres undefined), the cell number change was -11.2%.
`O=C(c1ccc(COc2ccccc2Br)o1)N1CCCCCC1`: the cell number change was -2.73%.
On to `C=CCN1C(=O)/C(=C2/Sc3ccc(OC)cc3N2CC)SC1=S`, for which the cell number change was -15.7%. The AC50 under setting [1] is 6.51 µM [falling, full curve, poor fit].
`COc1cccc(NC(=O)CSc2nc(C3CC3)nc3ccccc23)c1`: the cell number change is 138%. In addition, under setting [2], the AC50 is 16.4 µM [rising, single point].
Take `O=C(Nc1ccc2c(c1)nc1n2CCOC1)c1ccccc1`: the cell number change came to 9.42%. In addition, the half-maximal activity concentration (AC50) under setting [1] is 0.00461 µM [falling, full curve, poor fit].
For the compound `CCOC(=O)N1CCN(C(=O)Nc2ccc(NC(=O)N3CCN(C(=O)OCC)CC3)cc2)CC1`, the cell number change is -9.77%. Also, the AC50 under setting [1] was 29.1 µM [falling, single point].
Take `CCc1cccc(C)c1NC(=O)CSc1nnc(Cc2csc(C)n2)o1`: the cell number change was 144%. Under setting [2], the AC50 was 29.1 µM [rising, single point].
Turning to `CC(=O)c1cccc(NS(=O)(=O)c2c(C)n[nH]c2C)c1`, the half-maximal activity concentration (AC50) runs as follows: under setting [2], 0.013 µM [falling, full curve, poor fit]; under setting [1], 0.231 µM [falling, partial curve, poor fit].
For `CN1CCCC1=Nc1c2c(nc3ccccc13)N(C)CC2`, the cell number change was -17.2%. In addition, under setting [1], the AC50 is 0.731 µM [falling, full curve].
For `COc1ccc(OC)c(-c2cc(C(=O)NCCCn3ccnc3)no2)c1`, the cell number change was -0.1%. Further, the AC50 under setting [2] was 0.146 µM [rising, full curve, poor fit]. Under setting [1], the AC50 was 0.411 µM [rising, full curve].
Take `Cc1c(C)c2ccc(OCC(=O)NC(Cc3c[nH]c4ccc(O)cc34)C(=O)O)c(C)c2oc1=O` (centres undefined): the cell number change was 11.5%. Further, the AC50 under setting [1] is 6.51 µM [rising, single point].
Turning to `O=C(CSc1nc2ncccc2[nH]1)c1cccc([N+](=O)[O-])c1`, the cell number change was -33.9%. Further, under setting [2], the AC50 was 20.6 µM [falling, partial curve, poor fit]. Further, under setting [1], the AC50 was 18.4 µM [falling, partial curve].
As for `CC(C)CNS(=O)(=O)c1ccc(OCC(=O)Nc2ccc(F)cc2F)cc1`, the cell number change came to 63.3%. Under setting [2], the AC50 is 14.6 µM [rising, partial curve].
For `CC(=O)NS(=O)(=O)c1cccnc1Nc1ccc(Cl)cc1`, the cell number change was -14.9%.
On the same count and under the same terms, the figure for `O=C(Nc1ccccc1)c1ccc(F)c(S(=O)(=O)N2CCOCC2)c1` is 0.408%.
In the case of `COc1cccc(CN(C(=O)c2ccc([N+](=O)[O-])cc2)C2CCS(=O)(=O)C2)c1` (centres undefined), the cell number change was -39.4%. Besides, the AC50 under setting [2] was 29.1 µM [falling, single point]. Under setting [1], the AC50 was 6.51 µM [rising, single point].
As to `CCOC(=O)CC(NC(=O)c1ccco1)c1ccc(C)cc1` (centres undefined), the cell number change was 27.3%. Under setting [1], the concentration at half-maximal activity (AC50) is 0.092 µM [falling, full curve, poor fit].
Take `O=C(Cn1c(C2CC2)nc2ccccc2c1=O)Nc1ccc(Br)cc1`: the cell number change is -6.21%. Besides, under setting [1], the AC50 was 2.31 µM [falling, partial curve].
For `CCN(Cc1nc2ccccc2c(=O)[nH]1)C(=O)c1cc2c(s1)CCCCC2`, the cell number change is -13.4%.
As for `O=C(CNC(=O)c1cccs1)c1ccc(Cl)cc1`, the cell number change is -13.2%.
Consider `COCCCn1c(SCC(=O)Nc2ccc3c(c2)OCCO3)nnc1-c1ccoc1C`, for which the cell number change was -5.15%. The AC50 under setting [1] is 0.461 µM [rising, full curve, poor fit].
With `CCOc1ccc(N(C(=O)c2ccccc2Cl)C2=NC(C)(C)CS2)cc1`, the cell number change is -20.9%.
As to `C#CCOCCOCCOCCNc1nc(N2CCN(C(=O)CCCCCCCCCCNC(=O)[C@@H](CCC(=O)O)n3cc(CCCCCN)nn3)CC2)nc(N2CCN(C(=O)CCCCCCCCCCNC(=O)[C@H](CO)n3cc(CCCSC)nn3)CC2)n1`, the cell number change was found to be 9.24%. Further, the half-maximal activity concentration (AC50) under setting [1] is 1.46 µM [falling, partial curve].
Consider `Cn1c(=O)n(C)c2cc(NS(=O)(=O)c3ccc4c(c3)CCCC4)ccc21`, for which the cell number change is 157%. The AC50 under setting [2] was 2.31 µM [rising, full curve]. Moreover, the AC50 under setting [1] was 2.31 µM [rising, partial curve].
`COc1ccccc1C(=O)NCc1ccccn1`: the cell number change came out at 49.3%. Besides, the AC50 under setting [2] is 32.6 µM [rising, partial curve, poor fit].
Turning to `COc1ccc(OC)c(C(=O)COC(=O)CN2C(=O)NC3(CCCCC3C)C2=O)c1` (centres undefined), the cell number change was 12.6%. Moreover, the AC50 under setting [1] was 4.61 µM [rising, partial curve, poor fit].
`O=C(c1cc(-c2ccncc2)nc2ccc(Br)cc12)N1CCN(Cc2ccc3c(c2)OCO3)CC1`: the half-maximal activity concentration (AC50) under setting [1] was 13 µM [rising, single point].
For the compound `COc1cccc2oc3ccc(C#CC4(N)CCCCC4)cc3c(=O)c12`, the cell number change is 9.39%. Moreover, the AC50 under setting [1] was 29.1 µM [rising, single point].
Take `CCOC(=O)c1ccc(NC(=O)CN2CCN(c3ccccc3)CC2)cc1`: the cell number change worked out at 39.7%. Also, under setting [2], the AC50 was 1.03 µM [rising, full curve, poor fit]. Also, the half-maximal activity concentration (AC50) under setting [1] was 2.06 µM [rising, full curve].
In the case of `Nc1nc2n(n1)C(c1ccco1)CC(c1ccc(F)cc1)N2` (centres undefined), the cell number change amounted to 0.759%.
On to `O=C1CCCC2=C1C(c1cccs1)CC(=O)N2c1ccc(F)cc1` (centres undefined), for which the AC50 under setting [1] was 6.51 µM [falling, single point].
Consider `CCCc1nn(C)c(C(=O)Nc2ccccc2)c1Cl`, for which the cell number change is 7.38%. Further, the half-maximal activity concentration (AC50) under setting [1] was 25.9 µM [rising, single point].
Consider `O=C(Nc1ccc2c(c1)CCC2)Nc1ccccc1F`, for which the cell number change is 64.5%. The AC50 under setting [2] is 25.9 µM [rising, partial curve]. For the same compound, the AC50 under setting [1] was 4.61 µM [rising, partial curve, poor fit].
